Data reported in PMC12520357 (2025).
Residue numbers refer to the chain shown, from its start. These are yes or no findings as the source states them, for the method shown. In cells and extracts the contact can be indirect. Some results given as binding are weak or reduced against the parent protein; the word gives no strength. Tags and fused reporters may be left off the sequences shown. One block for each molecule: values may come before it.

Amino acid sequences for entries named in this document (tags omitted).
UniProt P32598: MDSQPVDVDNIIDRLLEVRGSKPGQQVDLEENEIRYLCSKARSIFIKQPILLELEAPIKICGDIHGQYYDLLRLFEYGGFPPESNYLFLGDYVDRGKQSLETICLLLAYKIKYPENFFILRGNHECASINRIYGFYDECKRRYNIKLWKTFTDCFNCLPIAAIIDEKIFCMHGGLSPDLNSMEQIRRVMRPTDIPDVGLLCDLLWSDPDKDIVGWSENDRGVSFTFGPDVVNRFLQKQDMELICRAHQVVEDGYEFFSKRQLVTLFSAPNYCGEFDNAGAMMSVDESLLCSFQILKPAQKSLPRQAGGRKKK

How the values were obtained:
[1] = target: T1, Reg1-N624S-FLAG (S. cerevisiae) (UniProt Q00816); experiment: co-IP; Reg1-FLAG precipitated on anti-FLAG M2 agarose from native yeast lysates (50 mM HEPES pH 7.5, 150 mM NaCl, 0.5% Triton X-100, 1 mM DTT, 10% glycerol), 1 h at 4°C; blots with anti-FLAG, anti-GFP (Glc7, Snf1) and anti-14-3-3; steady state
T1 sequence: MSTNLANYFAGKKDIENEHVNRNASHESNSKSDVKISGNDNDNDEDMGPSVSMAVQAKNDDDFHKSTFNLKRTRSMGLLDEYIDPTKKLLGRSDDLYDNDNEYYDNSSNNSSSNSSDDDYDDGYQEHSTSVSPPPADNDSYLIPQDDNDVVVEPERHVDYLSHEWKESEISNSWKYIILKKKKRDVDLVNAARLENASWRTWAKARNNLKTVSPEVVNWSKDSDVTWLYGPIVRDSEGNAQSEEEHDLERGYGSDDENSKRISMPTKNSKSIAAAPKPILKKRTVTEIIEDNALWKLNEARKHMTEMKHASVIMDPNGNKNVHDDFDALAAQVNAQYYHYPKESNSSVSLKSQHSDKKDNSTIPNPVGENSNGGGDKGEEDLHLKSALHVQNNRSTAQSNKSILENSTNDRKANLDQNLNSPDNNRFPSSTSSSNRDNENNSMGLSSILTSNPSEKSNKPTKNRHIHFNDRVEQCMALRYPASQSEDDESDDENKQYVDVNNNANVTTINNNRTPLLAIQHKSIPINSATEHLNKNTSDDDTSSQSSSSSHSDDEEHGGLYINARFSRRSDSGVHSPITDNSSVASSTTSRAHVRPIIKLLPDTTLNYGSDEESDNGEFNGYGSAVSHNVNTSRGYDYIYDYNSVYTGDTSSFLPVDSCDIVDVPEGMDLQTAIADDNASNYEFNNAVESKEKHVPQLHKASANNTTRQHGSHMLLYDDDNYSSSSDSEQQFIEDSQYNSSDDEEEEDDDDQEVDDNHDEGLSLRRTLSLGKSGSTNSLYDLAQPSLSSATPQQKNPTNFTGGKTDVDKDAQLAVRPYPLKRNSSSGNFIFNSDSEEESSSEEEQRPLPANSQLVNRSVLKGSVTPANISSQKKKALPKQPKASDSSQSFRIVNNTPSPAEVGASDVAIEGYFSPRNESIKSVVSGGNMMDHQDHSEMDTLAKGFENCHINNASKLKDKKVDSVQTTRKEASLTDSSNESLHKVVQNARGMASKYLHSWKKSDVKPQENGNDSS

[2] = target: T2, Reg1-P278Q-FLAG (S. cerevisiae) (UniProt Q00816); experiment: as above
T2 sequence: T1 sequence with P278Q, S624N

binding [1]: binds | binding [2]: binds
Molecule: Glc7-GFP (from UniProt P32598 1-312)

binding [1]: binds | binding [2]: binds
B1: Snf1-GFP (protein, UniProt P06782 1-633)
chain: MSSNNNTNTAPANANSSHHHHHHHHHHHHHGHGGSNSTLNNPKSSLADGAHIGNYQIVKTLGEGSFGKVKLAYHTTTGQKVALKIINKKVLAKSDMQGRIEREISYLRLLRHPHIIKLYDVIKSKDEIIMVIEYAGNELFDYIVQRDKMSEQEARRFFQQIISAVEYCHRHKIVHRDLKPENLLLDEHLNVKIADFGLSNIMTDGNFLKTSCGSPNYAAPEVISGKLYAGPEVDVWSCGVILYVMLCRRLPFDDESIPVLFKNISNGVYTLPKFLSPGAAGLIKRMLIVNPLNRISIHEIMQDDWFKVDLPEYLLPPDLKPHPEEENENNDSKKDGSSPDNDEIDDNLVNILSSTMGYEKDEIYESLESSEDTPAFNEIRDAYMLIKENKSLIKDMKANKSVSDELDTFLSQSPPTFQQQSKSHQKSQVDHETAKQHARRMASAITQQRTYHQSPFMDQYKEEDSTVSILPTSLPQIHRANMLAQGSPAASKISPLVTKKSKTRWHFGIRSRSYPLDVMGEIYIALKNLGAEWAKPSEEDLWTIKLRWKYDIGNKTNTNEKIPDLMKMVIQLFQIETNNYLVDFKFDGWESSYGDDTTVSNISEDEMSTFSAYPFLHLTTKLIMELAVNSQSN
